In PubChem BioAssay AID540276 (National Center for Advancing Translational Sciences (NCATS), 2011):
The whole screen tested about 300,000 compounds, of which about 5,400 (1.8%) were called active. The inconclusive results got no clear call from the source; some entries with a clear call stand among them for comparison. The call rests on the fitted dose curve; tested in HEK293 cells. A potency beside an inconclusive call is a rough fit, not a confirmed value.

Experiment: qHTS for inhibitors of binding or entry into cells for Marburg Virus
Settings: Marburg virus pseudotyped entry inhibition, cell reporter; activity change, negative = inhibition: at 37.8 µM (top of the series) unless noted
On the % scale 0 is the no-effect control and ±100 the full control effect; potency means the concentration at half of the fitted maximal effect.

SMILES	Potency	activity change, negative = inhibition
c1ccc2nc(-c3nc4ccccc4o3)ccc2c1	inconclusive: 4.61 µM [inhibitor, full curve, poor fit]	
O=S1(=O)C[C@@H](N2CCC(Cc3ccccc3)CC2)[C@H](COCc2ccccc2)N1	inconclusive: 0.28 µM [activator, full curve, poor fit]	
CC(C)(C)c1ccc(CN2C3=NCCCN3c3ccccc32)cc1	active: 2.59 µM	
COc1ccc(-c2cn[nH]c2-c2ccc(OCc3ccc(F)cc3)cc2O)cc1OC	inconclusive: 10 µM [inhibitor, partial curve, poor fit]	
Cc1ccc(CC(=O)NNC(=O)c2ccncc2)cc1C	inconclusive: 12.6 µM [activator, single point]	
COc1cc(S(=O)(=O)N2CCN=C2c2ccccc2)ccc1F	inconclusive: 1.46 µM [inhibitor, full curve]	
COC(=O)c1ccc2nc(C)cc(Nc3ccc(O)cc3)c2c1		inactive: 2.29% [at 46.1 µM]
Cc1nc2sccn2c(=O)c1Br	inconclusive: 35.5 µM [activator, single point]	
CC(=O)C1=C(C)NC(C)=C(C(C)=O)C1c1cn(-c2ccccc2)nc1-c1cccs1		inactive: -21.3%
CC1CN(S(=O)(=O)c2cccc(C(=O)Nc3ccc(S(=O)(=O)NC4=NCCCCC4)cc3)c2)CC(C)O1 (configuration not stated)	inconclusive: 5.62 µM [inhibitor, single point]	
Cc1[nH]c2ccccc2c1C(=O)CN1C(=O)C(=O)N(C2CCCC2)C1=O	inconclusive: 20 µM [activator, single point]	
O=C(Nc1cc2c(cc1Br)OCCO2)c1ccco1	inconclusive: 0.58 µM [activator, single point]	
COc1ccc(CCNC(=O)CN2CCC(C(N)=O)CC2)cc1	inconclusive: 11.2 µM [activator, partial curve]	
Cc1nc(-c2ccccc2)nc2[nH]c(C(C)C)cc(=O)c12		inactive: -22.9%
CCN1CCCC(CO)(Cc2ccccc2)C1 (configuration not stated)	inconclusive: 35.5 µM [activator, single point]	
CCCOc1ccc(/C(O)=C2/C(=O)C(=O)N(CCCn3ccnc3)C2c2cccnc2)cc1 (configuration not stated)		inactive: -2.66% [at 46.1 µM]
COc1ccc(CNC(=O)C(C)OC(=O)CCN2C(=O)C3CC=CCC3C2=O)cc1 (configuration not stated)	inconclusive: 35.5 µM [activator, single point]	
O=C(c1cccc(C(F)(F)F)c1)N1CCC(O)(CS(=O)(=O)Cc2ccc(Cl)cc2)CC1		inactive: 6.23%
Cc1cc(NC(=O)C(Cl)Cl)cc2c1OCO2	inconclusive: 8.91 µM [inhibitor, partial curve, poor fit]	
Cn1c(CNC(=O)c2ccc(Cl)cc2)nnc1SCC(=O)NC1CCCC1		inactive: 10.5% [at 46.1 µM]
ClCc1nnc(-c2ccccc2)o1	inconclusive: 6.51 µM [inhibitor, single point]	
CCc1nnc(N2C(=N)SCC2=O)s1		inactive: 2.46% [at 46.1 µM]
COc1ccc(/C=C/C(=O)c2ccc[nH]2)c(OC)c1OC		inactive: 6.95%

SMILES	Potency	activity change, negative = inhibition
N#CC1(C#N)C(C(N)=O)C1c1ccccc1 (configuration not stated)	inconclusive: 0.13 µM [inhibitor, single point]	
O=C1c2ccccc2NC2(CCCCC2)N1N=C1CCCCC1		inactive: 6.91%
O=C(CCl)N=c1sccn1Cc1ccc(Cl)cc1Cl	inconclusive: 35.5 µM [inhibitor, single point]	
Cc1cccc(OCC(=O)Nc2ccc(N3CCN(S(C)(=O)=O)CC3)cc2)c1C	inconclusive: 29.1 µM [inhibitor, single point]	
Cc1nn(Cc2c(F)c(F)c(F)c(F)c2F)c(C)c1NC(=O)c1cccc(COc2ccccc2Cl)c1	inconclusive: 16.4 µM [inhibitor, single point]	
COc1cc(C(=S)N2CCOCC2)ccc1OC(=O)c1cc([N+](=O)[O-])c(C)c([N+](=O)[O-])c1	inconclusive: 0.398 µM [inhibitor, partial curve, poor fit]	
CSc1nc(O)c(C(c2ccccc2Cl)c2c(O)nc(SC)[nH]c2=O)c(=O)[nH]1	inconclusive: 35.5 µM [inhibitor, single point]	
COc1ccc(C(=O)N(CC2CCCO2)C(C(=O)NC2CCCC2)c2ccc(Cl)cc2)cc1OC (configuration not stated)		inactive: 1.9%
CN(C)S(=O)(=O)c1ccc(NC(=S)NC(=O)Cc2ccccc2)cc1		inactive: -0.724% [at 46.1 µM]
NC(=O)c1c(NC(=O)c2ccncc2)sc2c1CCCCCC2	inconclusive: 3.55 µM [inhibitor, single point]	
O=C(CN1CCC(O)(c2cccc(C(F)(F)F)c2)CC1)NCCc1ccccc1	inconclusive: 35.5 µM [inhibitor, single point]	
CC1CCN(C(=O)CCNS(=O)(=O)c2ccccc2)CC1	inconclusive: 25.9 µM [activator, single point]	
Cc1occc1C(=O)NNC(=O)c1ccc(F)cc1		inactive: 24.1%
Nc1c(-c2ccc(Cl)cc2)nnn1-c1ccccc1	inconclusive: 0.0052 µM [activator, full curve, poor fit]	
CCS(=O)(=O)N1CCC(C(=O)NCc2cccs2)CC1	inconclusive: 32.6 µM [activator, single point]	
CCC(C)n1c(=N)c(S(=O)(=O)c2ccc(C)cc2)cc2c(=O)n3cc(C)ccc3nc21 (configuration not stated)		inactive: 1.31% [at 46.1 µM]
COc1ccc(CCNC(=O)c2cc3c(=O)n4cccc(C)c4nc3n(CC3CCCO3)c2=N)cc1 (configuration not stated)	inconclusive: 0.708 µM [inhibitor, full curve, poor fit]	
Cc1ccccc1C(=O)NNc1ncnc2c1cnn2C	inconclusive: 0.316 µM [inhibitor, partial curve, poor fit]	
CCC1CCc2sc(C(=O)N3CCCN(C)CC3)cc2C1 (configuration not stated)	inconclusive: 35.5 µM [inhibitor, single point]	
Cc1occc1C(=O)O/N=C(\N)c1ccc(Cl)cc1	inconclusive: 17.8 µM [inhibitor, single point]	
Cc1ccccc1-c1noc(CSc2nnc(Cc3ccccc3)n2-c2ccc(F)cc2)n1	inconclusive: 8.91 µM [inhibitor, partial curve, poor fit]	
C=CCN(C(=O)C1=NN(C2CCS(=O)(=O)C2)C(=O)CC1)c1nc(-c2ccc([N+](=O)[O-])cc2)cs1 (configuration not stated)	inconclusive: 6.31 µM [activator, partial curve, poor fit]	
CCCCOc1ccc(/C=C/C(=O)OCC(=O)NC2CCS(=O)(=O)C2)cc1OCC (configuration not stated)	inconclusive: 5.62 µM [activator, single point]	

SMILES	Potency	activity change, negative = inhibition
CCCn1c(COc2ccccc2)nc2ccccc21	inconclusive: 0.891 µM [inhibitor, single point]	
CCn1c(CSCc2ccc(F)cc2)nnc1SCC(=O)N1CCN(c2ccccc2)CC1	inconclusive: 15.8 µM [inhibitor, single point]	
Cc1cccc(N(Cc2ccccc2)C(=O)CSC(C)C(=O)Nc2cc(C)on2)c1 (configuration not stated)	inconclusive: 25.1 µM [inhibitor, single point]	
CCc1nc(SCC(=O)NCC2CCCO2)c2oc3ccccc3c2n1 (configuration not stated)	inconclusive: 10 µM [inhibitor, partial curve, poor fit]	
CCOC(=O)CNC(=O)CNC(=O)c1ccc(OCC(C)C)cc1	inconclusive: 3.98 µM [inhibitor, partial curve, poor fit]	
COc1ccc(NC(C)=O)cc1S(=O)(=O)Nc1ccc(OCc2ccccc2)cc1	inconclusive: 35.5 µM [inhibitor, single point]	
Fc1ccc(CNc2cnccn2)cc1		inactive: 6.23%
CCSc1ccc(-c2ccco2)nn1	inconclusive: 7.08 µM [activator, partial curve, poor fit]	
CNc1nnc(-c2cccc(N(C)C)c2)s1		inactive: 4.75%
N#CCCn1cc(C(=O)N2CCOCC2)c(-c2ccc3c(c2)OCCO3)n1	inconclusive: 15.8 µM [activator, single point]	
CCc1cccc(C)c1NC(=O)COC(=O)c1c2c(nc3ccccc13)/C(=C\c1cccs1)CCC2	inconclusive: 3.55 µM [inhibitor, partial curve, poor fit]	
CCCN1CCN(CC2=C(C(=O)OCC)C(c3ccc(Cl)cc3)NC(=O)N2)CC1 (configuration not stated)	inconclusive: 35.5 µM [inhibitor, single point]	
Cc1nn(Cc2ccccc2)c(Cl)c1C(=O)OCC(=O)NC(=O)NC12CC3CC(CC(C3)C1)C2	inconclusive: 22.4 µM [inhibitor, single point]	
Cc1cccc(C)c1OCCNC(=O)CCC(=O)c1ccccc1	inconclusive: 1.41 µM [inhibitor, single point]	
O=c1cc(CN2CCCCC2)nc(C2CC2)[nH]1		inactive: 6.76% [at 46.1 µM]
COc1ccc(CNC(=O)C(c2ccncc2)N(C(=O)Cc2cccs2)c2ccc(C)cc2)cc1 (configuration not stated)	inconclusive: 0.184 µM [inhibitor, full curve, poor fit]	
COCCCNC(=O)/C(C#N)=C/c1cccc(NC(=O)c2ccccc2Cl)c1	inconclusive: 31.6 µM [inhibitor, single point]	
CC1=CC=CC2=NC(=O)CC(C)(C(=O)N(CC(=O)NC3CCCC3)Cc3ccc(Cl)cc3)N12 (configuration not stated)		inactive: -1.39% [at 46.1 µM]
Cc1ccc(S(=O)(=O)NNC(=O)c2ccncc2)cc1	inconclusive: 20 µM [activator, single point]	
CC(=O)N1CCOc2ccc(S(=O)(=O)N3CCC(C(=O)Nc4ccc(C)c(C)c4)CC3)cc21		inactive: 19.3% [at 46.1 µM]
C=C1CC(COc2cc(=O)oc3ccccc23)(c2ccccc2)OC1=O (configuration not stated)	inconclusive: 11.2 µM [inhibitor, partial curve, poor fit]	

Complete entries, quoted from the list:
`Cc1ccc(S(=O)(=O)NNC(=O)c2ccncc2)cc1` is listed with Potency: inconclusive: 20 µM [activator, single point]
`COc1ccc(NC(C)=O)cc1S(=O)(=O)Nc1ccc(OCc2ccccc2)cc1` is listed with Potency: inconclusive: 35.5 µM [inhibitor, single point]
`CCn1c(CSCc2ccc(F)cc2)nnc1SCC(=O)N1CCN(c2ccccc2)CC1` is listed with Potency: inconclusive: 15.8 µM [inhibitor, single point]
`CCc1nc(SCC(=O)NCC2CCCO2)c2oc3ccccc3c2n1` (configuration not stated) is listed with Potency: inconclusive: 10 µM [inhibitor, partial curve, poor fit]
